Earlier results as cited in patent publication US20030207854A1, “Antiprogestins with partial agonist activity” (priority 2002, published 2003).
For at least one compound, name, drawing or mass did not settle the structure.

System: progesterone receptor (PR)
Conditions: Ojasoo et al. 1988; cited from earlier work

SMILES: C[C@@H]1C[C@H]2[C@@H]3CCC4=CC(=O)C=C[C@]4(C)[C@@]3(F)[C@@H](O)C[C@]2(C)[C@@]1(O)C(=O)CO [Dex, Dexamethasone]
- affinity for the progesterone receptor: very low
